Assay results published in PubChem BioAssay AID504444 (National Center for Advancing Translational Sciences (NCATS), 2011).
Screen size: about 360,000 compounds; about 7,500 (2.1%) were called active. Inconclusive means that the source gave no clear call. Such entries were picked first, then a sample of the others. Calls come from the whole dose curve; as a rule, active = well fitted inhibition curve with a large enough effect; inconclusive = small, poorly fitted or top-dose-only effect, or effect the other way; inactive = flat fitted curve, though single readings scatter. Where the call is inconclusive, the potency comes from a doubtful curve fit.

experiment: Nrf2 qHTS screen for inhibitors; details: A549 ARE-Fluc reporter, luciferase luminescence, 18-24 h; series mostly up to 46 µM; note: nearly all actives have a fitted effect of over 60% in size
Method in brief: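 Cells were seeded and rested 2 h, then exposed to compounds for 18-24 h. CellTiter-Fluor was read first as a viability measure. BugLite was added 15 min before the final luminescent read of ARE-luciferase activity in A549 cells.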
Potency is the fitted concentration of half-maximal effect.

| SMILES | Potency |
| --- | --- |
| CC(=O)c1ccc(NS(=O)(=O)c2cc3c(cc2C)N(C(C)=O)CCO3)cc1 | inactive |
| N#C/C(=C\c1coc2ccccc2c1=O)C(N)=S | inactive |
| Cc1cc(NC(=O)CSc2nnc(-c3cccnc3)n2Cc2ccccc2)no1 | inactive |
| CN1C2CC(OC(=O)C(CO)c3ccccc3)CC1C1OC12 (stereo not drawn) | inactive |
| O=C(NCC1CCCO1)c1cc(-c2ccncc2)nc2ccccc12 (stereo not drawn) | inactive |
| CC(C)Oc1ccc(C(CCNCc2ccc(O)cc2)c2ccccc2)cc1 (stereo not drawn) | inactive |
| COc1ccc(-c2nc3ccc([N+](=O)[O-])cc3[nH]2)cc1 | inconclusive: 3.26 µM [activator, full curve] |
| CCCC(=O)NC(NC(=S)Nc1ccc(N=Nc2ccccc2)cc1)C(Cl)(Cl)Cl (stereo not drawn) | active: 8.2 µM |
| CN(CC(=O)N1CCCCCC1)S(=O)(=O)c1ccccc1 | inconclusive: 23.1 µM [activator, partial curve, poor fit] |
| CCCCNC(=S)N1CCN(c2nc3ccccc3s2)CC1 | inconclusive: 32.6 µM [falling, single point] |
| O=C(NCc1ccc(F)cc1)Nc1ccccc1 | inconclusive: 16.4 µM [activator, partial curve] |
| Cc1cc(C)c(S(=O)(=O)NC(C)C)c(C)c1-n1cnnn1 | inconclusive: 0.82 µM [falling, full curve, poor fit] |
| CN(Cc1cc2ccccc2[nH]c1=O)C(=O)C1CCCCC1 | inconclusive: 6.51 µM [activator, single point] |
| O=C(CN(c1ccc(Cl)cc1)S(=O)(=O)c1ccc(Cl)c([N+](=O)[O-])c1)NCCc1ccc(F)cc1 | inconclusive: 23.1 µM [falling, single point] |
| O=C(NCc1ccccc1)C1=C[C@H](c2ccc(C(F)(F)F)cc2)C[C@H](OCCCCO)O1 | inconclusive: 23.1 µM [falling, single point] |
| Cc1cc(CNC(=O)c2ccc3nc(Cc4ccccc4F)oc3c2)nn1C | inconclusive: 0.92 µM [activator, full curve, poor fit] |
| O=C(N/N=C/c1ccc(O)cc1)c1csc2c1CCCC2 | inconclusive: 1.3 µM [activator, full curve] |
| Cc1cc(C)c(NC(=O)CCN2C(=O)c3ccccc3Sc3ncccc32)c(C)c1 | inconclusive: 0.0041 µM [activator, full curve, poor fit] |
| COc1ccc(Cc2nc3ccc(C(=O)NCc4cc(C)no4)cc3o2)cc1 | inconclusive: 13 µM [activator, partial curve] |
| CCC(=O)C1=C(O)C(c2cccc(Oc3ccccc3)c2)CCC1=O (stereo not drawn) | active: 14.6 µM |
| CN(C)c1ccc(-c2nc3n(n2)C(c2cccnc2)C2=C(CC(C)(C)CC2=O)N3)cc1 (stereo not drawn) | inactive |
| O=S(=O)(c1ccc(SCc2ccc(Cl)cc2)nc1)N1CCCC1 | inconclusive: 18.4 µM [falling, single point] |

Part of the list above in a different format.
SMILES | Potency
CN(CC(=O)N1CCCCCC1)S(=O)(=O)c1ccccc1 | inconclusive: 23.1 µM [activator, partial curve, poor fit]
O=C(CN(c1ccc(Cl)cc1)S(=O)(=O)c1ccc(Cl)c([N+](=O)[O-])c1)NCCc1ccc(F)cc1 | inconclusive: 23.1 µM [falling, single point]

Continued:

| SMILES | Potency |
| --- | --- |
| O=c1[nH]c(/C=C/c2ccccc2Cl)nc2ccccc12 | inconclusive: 2.59 µM [activator, partial curve] |
| COc1ccc(-c2ccc(F)cc2)cc1[C@H]1[C@H]2C=CC[C@@H](C)[C@@H]2C(=O)N1Cc1ccccc1 | inconclusive: 23.1 µM [falling, single point] |
| Cc1nc(N2CCCC2)c2c(C(=O)N3CCN(c4ccc(F)cc4)CC3)c(C)oc2n1 | inconclusive: 8.2 µM [activator, partial curve, poor fit] |
| CCn1c(SCC(=O)c2ccc(Cl)cc2)nnc1-c1cccs1 | inconclusive: 20.6 µM [activator, single point] |
| Cc1ccccc1CN1CCN(CC(=O)NCCCN2CCN(c3ccc(F)cc3)CC2)C1=O | active: 11.6 µM |
| Cc1c(NC(=S)NC(=O)c2ccco2)cccc1-c1nc2ncccc2o1 | inconclusive: 25.9 µM [falling, partial curve] |
| Cc1c(/C=C2\SC(=O)N(CC(=O)Nc3ccc4c(c3)OCO4)C2=O)c2ccccc2n1C | inconclusive: 16.4 µM [falling, partial curve, poor fit] |
| CC1(C)CC(=O)C=C(c2cc3ccccc3s2)C1 | inconclusive: 29.1 µM [activator, single point] |
| O=C(CCN1C(=O)/C(=C\c2ccccc2F)SC1=S)N1CCCCC1 | inactive |
| CCOCCCn1c(C)nc2c(c1=O)c1nc3ccccc3nc1n2CCC1=CCCCC1 | active: 13 µM |
| COc1ccc(-c2cc(C(=O)Nc3c(C)nn(Cc4ccccc4Cl)c3C)no2)cc1 | inconclusive: 29.1 µM [falling, single point] |
| Cc1cc(NC(=O)CCSc2nc(-c3ccco3)cc(C(F)(F)F)n2)no1 | inactive |
| CCN(CC)CCCNC(=S)N1CCN(c2nc(-c3ccccc3)cs2)CC1 | inactive |
| CCC1NC(=O)c2cc(S(N)(=O)=O)c(Cl)cc2N1 (stereo not drawn) | inconclusive: 8.2 µM [falling, partial curve, poor fit] |
| Cc1ccc(S(=O)(=O)Nc2cc(=O)[nH]c(SCC(=O)Nc3ccccc3Cl)n2)cc1 | inconclusive: 16.4 µM [falling, single point] |
| CCOC(=O)c1c(-c2ccccc2)csc1NC(=O)CSc1nnc(C)s1 | active: 13 µM |
| C/C(CC(=O)Nc1ccc(N(C)C)cc1)=N\NC(=O)c1ccccc1O | inconclusive: 14.6 µM [falling, partial curve, poor fit] |
| CN(C)CCCNC(=O)C[C@H]1C[C@H](C(=O)N2CCCCC2)[C@@]2(C)c3[nH]c4cc(-c5ccco5)ccc4c3CCN2C1=O | inconclusive: 0.259 µM [activator, full curve, poor fit] |
| COc1ccccc1CN1CCC(CNS(=O)(=O)c2cc(-c3onc(C)c3C)ccc2OC)CC1 | inconclusive: 29.1 µM [activator, single point] |
| Cn1cc(CNCCN2CCCCC2=O)c(-c2cccc(Cl)c2)n1 | inconclusive: 16.4 µM [activator, partial curve, poor fit] |
| Cc1cc(C(=O)CSc2ncccn2)c(C)n1Cc1ccco1 | inconclusive: 4.11 µM [activator, partial curve] |
